Patent US9284362B2, “α/β-peptide mimics of Z-domain peptides” (Wisconsin Alumni Research Foundation, priority 2014, dated 2016)
Not every detail of the peptide structures is certain; ends, links or a residue may be inferred. At least one structure is not confirmed: it was looked up by name or label, or the drawing left a doubt.

Target: T1, VEGF (Homo sapiens, UniProt P15692)
T1 construct: made in house
T1 sequence (P15692 27-191 isoform P15692-4): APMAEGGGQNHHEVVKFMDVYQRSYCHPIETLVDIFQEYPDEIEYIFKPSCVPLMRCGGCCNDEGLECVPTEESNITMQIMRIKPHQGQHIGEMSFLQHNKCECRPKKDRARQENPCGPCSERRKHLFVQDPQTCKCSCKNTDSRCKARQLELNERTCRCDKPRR
Experiment: VEGF competition fluorescence polarization (FP) assay
Assay type: binding
Details: Table 5, early mimics; FP assay run once

Work on `CC[C@H](C)[C@H](NC(=O)[C@H](CCCNC(=N)N)NC(=O)C(C)(C)NC(=O)[C@H](Cc1ccc(O)cc1)NC(=O)[C@H](CC(C)C)NC(=O)[C@H](CC(N)=O)NC(=O)[C@H](CC(C)C)NC(C)=O)C(=O)N[C@@H](C)C(=O)N[C@@H](CCCCN)C(=O)N[C@H](C(=O)N[C@H](C(=O)N[C@@H](CO)C(=O)N[C@H](C(=O)N[C@@H](CC(=O)O)C(=O)N[C@@H](CC(=O)O)C(=O)NC(C)(C)C(=O)N[C@@H](C)C(N)=O)[C@@H](C)CC)C(C)C)[C@@H](C)CC` [Mini-Z-1 H2 7] yielded a Ki of over 50 µM.
In the case of `CC[C@H](C)[C@H](NC(=O)[C@H](CCCNC(=N)N)NC(=O)C(C)(C)NC(=O)[C@H](Cc1ccc(O)cc1)NC(=O)[C@H](CC(C)C)NC(=O)[C@H](CC(N)=O)NC(=O)[C@H](CC(C)C)NC(C)=O)C(=O)N[C@@H](C)C(=O)NC(C)(C)C(=O)N[C@H](C(=O)N[C@H](C(=O)NC(C)(C)C(=O)N[C@H](C(=O)N[C@@H](CC(=O)O)C(=O)N[C@@H](CC(=O)O)C(=O)NC(C)(C)C(=O)N[C@@H](C)C(N)=O)[C@@H](C)CC)C(C)C)[C@@H](C)CC` [Mini-Z-1 H2 8], the Ki is reported as over 50 µM.
“Ac-ARLYEAIARIVEADARA-NH2 [Mini-Z-1 H2 2]” showed a Ki of over 50 µM.
Molecule “Ac-EELYRRIEEIVRRDEEA-NH2 [Mini-Z-1 H2 3]” has a Ki of over 50 µM.
“Ac-LELYRRIAEIVRIDDEA-NH2 [Mini-Z-1 H2 5]” was tested, and the Ki was over 50 µM.
“Ac-RRLYEEIRRIVEEDRRA-NH2 [Mini-Z-1 H2 1]” was tested, and the Ki was over 50 µM.
For “Ac-LRLYERIARIVEIDDRA-NH2 [Mini-Z-1 H2 6]”, the Ki was over 50 µM.
